Tested on: Raji cells
Test: Raji monolayer stability to repeated acoustic force ramps on PLL-coated chips
Format: cell-based

| SMILES | monolayer confluency after force application (Raji on PLL reacted with 10 mM crosslinker after seeding, 4 acoustic force ramps 1 to 1000 pN) | attachment of target cells / monolayer confluency after force application (PLL chip reacted with 5 mM reagent before seeding the Raji (negative control)) |
| --- | --- | --- |
| O=C(CCOCCOCCOCCOCCOCCOCCOCCOCCOCCC(=O)ON1C(=O)CCC1=O)ON1C(=O)CCC1=O [BS(PEG)9] | not affected by the force | – |
| COCCOCCOCCOCCC(=O)ON1C(=O)CCC1=O [MS(PEG)4] | – | prevented the stable attachment of the target cells |
